Read-outs that look alike come from different tables or passages of the source. No constants are given. Whether binding was seen depends on the method and setting. In cells and extracts the contact can be indirect. These calls come from enrichment with a bait or labelling near it, and not all partners need be listed. For some assays here: A no says only that the protein was not detected with the bait. For some assays here: Tags and fused reporters may be left off the sequences shown.

Amino acid sequences for entries named in this document (tags omitted).
UniProt Q7XZF5: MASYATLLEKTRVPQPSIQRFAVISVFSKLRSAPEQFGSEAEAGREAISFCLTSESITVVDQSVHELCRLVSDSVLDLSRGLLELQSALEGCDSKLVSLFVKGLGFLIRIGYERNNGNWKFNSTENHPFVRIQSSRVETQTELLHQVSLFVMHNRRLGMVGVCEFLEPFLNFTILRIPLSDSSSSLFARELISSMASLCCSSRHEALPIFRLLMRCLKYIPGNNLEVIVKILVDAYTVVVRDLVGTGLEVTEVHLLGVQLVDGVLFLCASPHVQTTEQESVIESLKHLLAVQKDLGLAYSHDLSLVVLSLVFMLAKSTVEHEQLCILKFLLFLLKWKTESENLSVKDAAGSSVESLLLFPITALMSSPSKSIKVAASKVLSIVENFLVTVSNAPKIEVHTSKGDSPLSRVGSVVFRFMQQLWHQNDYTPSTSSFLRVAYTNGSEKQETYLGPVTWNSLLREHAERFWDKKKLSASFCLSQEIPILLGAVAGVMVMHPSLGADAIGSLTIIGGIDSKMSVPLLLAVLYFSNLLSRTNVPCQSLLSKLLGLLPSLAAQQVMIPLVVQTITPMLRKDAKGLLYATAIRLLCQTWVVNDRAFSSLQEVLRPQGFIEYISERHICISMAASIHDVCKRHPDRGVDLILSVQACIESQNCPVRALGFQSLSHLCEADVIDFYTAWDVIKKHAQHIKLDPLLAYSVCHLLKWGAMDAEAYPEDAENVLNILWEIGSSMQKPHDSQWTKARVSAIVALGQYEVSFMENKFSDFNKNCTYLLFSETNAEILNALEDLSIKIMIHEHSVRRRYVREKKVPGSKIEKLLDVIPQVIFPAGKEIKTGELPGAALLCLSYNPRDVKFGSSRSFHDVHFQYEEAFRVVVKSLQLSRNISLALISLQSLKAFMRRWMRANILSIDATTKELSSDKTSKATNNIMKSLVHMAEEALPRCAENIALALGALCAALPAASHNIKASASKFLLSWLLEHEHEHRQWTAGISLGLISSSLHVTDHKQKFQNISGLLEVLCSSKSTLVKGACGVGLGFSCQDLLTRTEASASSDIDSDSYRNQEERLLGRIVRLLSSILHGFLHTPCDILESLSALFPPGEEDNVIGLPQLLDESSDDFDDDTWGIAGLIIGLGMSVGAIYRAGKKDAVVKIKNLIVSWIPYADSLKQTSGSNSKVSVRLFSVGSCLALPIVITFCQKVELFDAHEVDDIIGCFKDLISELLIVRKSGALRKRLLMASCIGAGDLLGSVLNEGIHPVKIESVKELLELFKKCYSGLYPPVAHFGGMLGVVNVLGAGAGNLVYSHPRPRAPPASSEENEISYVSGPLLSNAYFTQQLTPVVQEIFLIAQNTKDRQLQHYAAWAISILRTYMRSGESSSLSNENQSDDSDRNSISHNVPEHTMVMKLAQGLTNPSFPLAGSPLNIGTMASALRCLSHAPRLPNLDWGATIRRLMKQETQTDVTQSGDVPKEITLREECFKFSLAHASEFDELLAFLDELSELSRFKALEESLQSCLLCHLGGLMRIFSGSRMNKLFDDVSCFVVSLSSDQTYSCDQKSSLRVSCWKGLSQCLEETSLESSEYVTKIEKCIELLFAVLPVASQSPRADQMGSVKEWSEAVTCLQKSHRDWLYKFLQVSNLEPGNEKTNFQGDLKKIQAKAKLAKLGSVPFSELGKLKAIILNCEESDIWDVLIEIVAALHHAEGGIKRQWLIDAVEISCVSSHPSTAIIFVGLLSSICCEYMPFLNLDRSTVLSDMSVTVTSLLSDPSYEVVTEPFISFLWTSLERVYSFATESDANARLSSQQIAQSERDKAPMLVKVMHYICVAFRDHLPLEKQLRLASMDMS

Common to all, as to test: affinity purification with mass spectrometry; GFP-tagged bait captured from cleared lysate of Arabidopsis flower buds (50 mM Tris HCl pH 7.5, 25 or 50 mM NaCl, 1% Triton) on magnetic microbeads coupled to GFP antibodies, five washes; eluate analysed by nanoLC-MS/MS; enrichment against 20 control IPs (adjP < 0.05)
The target of test [1] is T1, CER7-GFP (Arabidopsis thaliana) (UniProt Q9M209).
T1 sequence: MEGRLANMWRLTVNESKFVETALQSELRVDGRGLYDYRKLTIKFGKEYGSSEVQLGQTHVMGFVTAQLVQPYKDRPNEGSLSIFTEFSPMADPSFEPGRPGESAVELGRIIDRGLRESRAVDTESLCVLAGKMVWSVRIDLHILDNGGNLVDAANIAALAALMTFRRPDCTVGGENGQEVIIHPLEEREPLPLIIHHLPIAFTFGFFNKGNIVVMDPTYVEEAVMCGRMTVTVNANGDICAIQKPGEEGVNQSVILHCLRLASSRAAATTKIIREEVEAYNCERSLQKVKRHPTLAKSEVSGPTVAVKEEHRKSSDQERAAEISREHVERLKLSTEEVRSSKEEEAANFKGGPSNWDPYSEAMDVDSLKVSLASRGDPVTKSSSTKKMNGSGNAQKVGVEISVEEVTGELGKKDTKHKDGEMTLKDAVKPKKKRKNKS

The target of test [2] is T2, RRP41-GFP (Arabidopsis thaliana) (UniProt Q9SP08).
T2 sequence: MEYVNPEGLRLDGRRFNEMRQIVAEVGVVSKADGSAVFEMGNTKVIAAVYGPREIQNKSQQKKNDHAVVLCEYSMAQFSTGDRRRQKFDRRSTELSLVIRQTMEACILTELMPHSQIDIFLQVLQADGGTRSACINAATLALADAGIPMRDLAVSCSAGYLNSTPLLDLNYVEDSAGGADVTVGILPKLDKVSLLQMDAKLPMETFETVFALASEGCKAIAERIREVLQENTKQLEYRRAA

Test [3] has as its target T3, RRP45A-GFP (Arabidopsis thaliana) (UniProt Q9LDM2).
T3 sequence: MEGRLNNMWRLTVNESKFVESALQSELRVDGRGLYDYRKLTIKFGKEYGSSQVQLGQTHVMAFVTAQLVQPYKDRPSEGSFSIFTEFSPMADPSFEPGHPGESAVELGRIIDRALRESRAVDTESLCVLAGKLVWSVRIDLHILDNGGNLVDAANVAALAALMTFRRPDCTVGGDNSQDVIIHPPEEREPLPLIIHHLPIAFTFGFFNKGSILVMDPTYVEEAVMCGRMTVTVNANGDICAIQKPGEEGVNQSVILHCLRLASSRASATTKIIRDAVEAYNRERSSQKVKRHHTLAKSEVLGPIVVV

Test [4] addresses T4, RST1 … PROTEIN (RIPR) fused to GFP (Arabidopsis thaliana) (UniProt F4K8S5).
T4 sequence: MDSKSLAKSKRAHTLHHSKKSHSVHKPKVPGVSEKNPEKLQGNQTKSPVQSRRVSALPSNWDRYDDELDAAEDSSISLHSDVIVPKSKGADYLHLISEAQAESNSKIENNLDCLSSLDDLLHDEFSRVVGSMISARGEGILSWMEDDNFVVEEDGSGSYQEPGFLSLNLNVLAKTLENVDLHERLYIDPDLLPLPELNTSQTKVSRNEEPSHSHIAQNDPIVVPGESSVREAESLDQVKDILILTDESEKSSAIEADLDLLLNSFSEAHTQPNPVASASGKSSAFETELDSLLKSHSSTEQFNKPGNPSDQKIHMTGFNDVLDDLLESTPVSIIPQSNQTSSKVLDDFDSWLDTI

Test [5] addresses RESURRECTION1 (RST1) fused to GFP (Arabidopsis thaliana) (UniProt Q7XZF5).
The target in test [6] is T4, RST1 … PROTEIN (RIPR) fused to GFP (Arabidopsis thaliana). This is another data set of the same source.

Regarding SKI7, the binding entry is listed as “binds” in test [1], “binds” in test [2], “no binding” in test [3] and “binds” in test [4].
Take “RESURRECTION1 (RST1) (from UniProt Q7XZF5 1-1841)”: the binding entry was “binds” in test [1], “binds” in test [2], “no binding” in test [3] and “binds” in test [4].

B1: SKI3 (protein, UniProt F4I3Z5 1-1168)
chain: MELEQLKKSVEENPDDSSLQFELGLYLWDNGGDSEKAAEHFVLSAKSDPNNAVAFKYLGHYYSRVTLDLNRAAKCYQRAVLINPNDSDSGEALCDLFDRQGKEILEIAVCRDASEKSPKAFWAFCRLGYIQLHQKKWSEAVQSLQHAIRGYPTMSDLWEALGLAYQRLGMFTAAIKAYGRAIELDETKIFALVESANIFLMLGSYRKGVELFEQALKISPQNISVLYGLASGLLSWSKECINLGAFGWAASLLEDARKAAKASSELASSMSCIWKLHGDIQLTYARCFPWSGGTENSEFTLKTFSDSILSWRSICYSAALSAKASYQRALHLAPWQANVYTDIAITCDLVSSLSDDSDTSSSWKLPEKMVLGALLLECENSEFWVALGCMSDNSALKLHALIRALHLDVSLAVAWAFMGQIFRESDEMKFAKQAFDCARSIDPTLALPWAGSADTYARESTSDEAFESCLRAAQISPLAEFQVGLAWLALLQGNISSPQIFACIEQAVQRSPYYPEPHNLHGLVCEARHNYHTAIASYRLALAAMSIYPESSVKSHAGKVSINLVRSLSKAGRFKESVMECANLKSKGLLDAGGLQIYAFSLWRTGQNDSALSVIRDLAGRISTREKTSIAFPISFICSLLYCISGLDSAITSIQKMPKDFFQSSKISFIVSAIHSLDQSDRLQSIVASTRSYITSQEEIVAMHYLIALSKLLKTGAGDFLGYEKGIAHLSKAIHMYPHSNLIRNLLGYILLAGEGMKDACTASRCCIINVSECANKEGLKSALEVLGGGSVACNVIGNTAPRFSFPTCHCQYLNAPVVVVELQRFLHQEPSNSSVRYLLILNLVQKAREQRFPRQLCRAIERLISVALSDETCSKEGEYKKFQLLLCASEISLQMGNIAESINHARKASSLSLPSSYLFLGHLQLCRAYAANGSTKNMQEEYRACLELKTDSNIGWICLKLIESQYNLEPDANLLEMSLQECSSQKKNSWKEWMAVYSLARGLDSTGKKDFFSAEEFLAQACSLLNSESCLLLCHGAVCMELARQSNDSQFLSLAVKSLSKVQASSLFPLPIVYTLLAQAHGSLGSKEKWEKNLRLEWFCWPPEMRPAEVYFQMHILARQSEDRPETTSGIENYQSPEKWVIRAIHTDPSCRRYWKVLDKLVQHPMS
For B1, the binding entry is on record as “no binding” in test [5] and “binds” in test [6].

B2: SKI2 (protein, UniProt F4JAA5 1-1347)
chain: MNKVEAGNELGFRVGFSGHGGHLRVEPFYTAERDDALNSLPDFVSPPAFAKETKESIKKHIEEKYLIPRLEPDQFSAEKAENQWDFDWFSRVKMPLQPSLPRSVVVPTWELPFRRQKEDTENGAWEPKSVEVDLSEQMYGDQDSGFFPRMVGPPKDFLRGSVNNRPFRPGGLEDSQSSERVLPEGVSSGQWVQELLNGGPAQTVPPSFKQSLDLGDLMPYPQTWSVYEDHSSHGNASDENSSKLSIQFDDLFKKAWEEDTFSELEGDDHTAGSESPKAEAEPDAKASISNEVSKGLETDVTVLDEILSSAKTAIMSEEAVTGSSDKQLRKEGWATKGDSQDIADRFYELVPDMAIEFPFELDNFQKEAICCLEKGESVFVAAHTSAGKTVVAEYAFALATKHCTRAVYTAPIKTISNQKYRDFCGKFDVGLLTGDVSIRPEASCLIMTTEILRSMLYRGADIIRDIEWVIFDEVHYVNDVERGVVWEEVIIMLPRHINFVLLSATVPNTFEFADWIGRTKQKEIRVTGTTKRPVPLEHCLFYSGELYKVCENEVFLSKGIKDAKDSQKKKNSNAVSVAPKQQMGSSAHQDGSKSQKHEAHSRGKQNKHSSVKDVGKSSYSGNSQNNGAFRRSAASNWLLLINKLSKMSLLPVVVFCFSKNYCDRCADALTGTDLTSSSEKSEIRVFCDKAFSRLKGSDRNLPQVLRLQSLLHRGIGVHHAGLLPIVKEVVEMLFCRGVIKVLFSTETFAMGVNAPARTVVFDALRKFDGKEFRQLLPGEYTQMAGRAGRRGLDKTGTVVVMCRDEVPDESDLRRVIVGSATRLESQFRLTYIMILHLLRVEELKVEDMLKRSFAEFHAQKKLPEKQQLLMIKRSLPTKHIECIKGEPAIEDYYDMYMEANEYNNKMSEAVMQSPYAQSFLVQGRVVVMKSGMGIDNLLGIVLKGPSNTNRQYVVLVIKSEIPPPEKNMVSIGKKSSDPSQGYFIAPKSKRGFEEEFYTKPSSRKGPVVIKIELPYHGVAAGVGYEVKGFDNKEFLCICDSKIKIDQVRLLEDGNKAAFSQTVQQLLDLKSDGNKFPPALDPVKDLKLKDAELVETYYKWTNLLQKMSMNKCHGCVKLEEHMKLAREIKKHKTDLKDLEFQMSDEALLQMPAFQGRIDVLKNIGCIDDDLVVQIKGRVACEMNSGEELICTVCLFENQFEELEPEEAVAIMSAFVFQQKNTSAPTLTPKLAKAKQRLYDTAIRLGELQAQYNLQIDPEEYAQENLKFGLVEVVYEWAKGTPFAEICELTDVPEGLIVRTIVRLDETCREFKNAAAIMGNSALHKKMDAASNAIKRDIVFAASLYVTGV
On to B2, for which the binding entry in test [5] is “no binding”; in test [6], “binds”.

B3: SKI8 (protein, UniProt Q9SZQ5 1-321)
chain: MKLAGLKSIENAHEDSVWAATWVPATEDRPALLLTGSLDETVKLWRPDELDLVRTNTGHSLGVAALAAHPSGIIAASSSIDSFVRVFDVDTNATIAVLEAPPSEVWGMQFEPKGTILAVAGGSSASVKLWDTASWRLISTLSIPRPDAPKPSDKTSSKKFVLSVAWSPNGKRLACGSMDGTICVFDVDRSKLLHQLEGHNMPVRSLVFSPVDPRVLFSGSDDGHVNMHDAEGKTLLGSMSGHTSWVLSVDASPDGGAIATGSSDRTVRLWDLKMRAAIQTMSNHNDQVWSVAFRPPGGTGVRAGRLASVSDDKSVSLYDYS
B3: the results for the binding entry in test [5] and in test [6] were “no binding” and “binds”, respectively.

The values above are taken from paper PMC6711988.
